Results reported in publication doi:10.64898/2025.12.01.691266.
These are yes or no findings as the source states them, for the method shown. Binding seen in cells or lysates may run through a third protein. Some results given as binding are weak or reduced against the parent protein; the word gives no strength. For some assays here: Sequences can lack the tags named with a protein.

Sequences of proteins named here, by UniProt entry; tags and fusion partners are left off. A change or cut given only in a name is not applied to a line headed by its entry.
UniProt Q13547: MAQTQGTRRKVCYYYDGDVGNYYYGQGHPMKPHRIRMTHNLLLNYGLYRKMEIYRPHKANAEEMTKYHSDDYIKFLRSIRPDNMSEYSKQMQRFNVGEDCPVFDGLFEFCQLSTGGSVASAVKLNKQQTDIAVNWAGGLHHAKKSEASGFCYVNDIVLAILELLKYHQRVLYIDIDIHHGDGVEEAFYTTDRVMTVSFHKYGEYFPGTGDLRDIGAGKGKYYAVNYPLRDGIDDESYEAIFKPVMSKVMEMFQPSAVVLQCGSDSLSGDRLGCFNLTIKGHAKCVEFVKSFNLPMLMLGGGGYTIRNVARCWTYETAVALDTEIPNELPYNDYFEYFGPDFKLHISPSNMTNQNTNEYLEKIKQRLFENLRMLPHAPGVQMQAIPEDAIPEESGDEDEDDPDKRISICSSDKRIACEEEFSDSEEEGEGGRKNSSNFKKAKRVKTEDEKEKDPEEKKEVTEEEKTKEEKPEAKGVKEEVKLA
UniProt Q15796: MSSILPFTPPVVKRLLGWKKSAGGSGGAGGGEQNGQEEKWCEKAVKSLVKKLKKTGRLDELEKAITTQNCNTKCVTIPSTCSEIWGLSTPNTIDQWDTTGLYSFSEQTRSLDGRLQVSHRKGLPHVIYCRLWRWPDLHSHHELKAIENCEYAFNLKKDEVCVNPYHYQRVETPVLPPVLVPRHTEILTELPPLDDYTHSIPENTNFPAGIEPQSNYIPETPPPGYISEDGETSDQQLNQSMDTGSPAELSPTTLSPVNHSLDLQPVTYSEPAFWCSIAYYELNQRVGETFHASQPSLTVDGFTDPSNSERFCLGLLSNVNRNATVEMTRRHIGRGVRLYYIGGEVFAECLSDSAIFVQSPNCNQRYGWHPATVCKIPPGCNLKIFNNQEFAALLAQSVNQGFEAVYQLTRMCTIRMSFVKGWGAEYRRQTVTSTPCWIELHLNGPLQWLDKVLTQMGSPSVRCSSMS
UniProt P84022: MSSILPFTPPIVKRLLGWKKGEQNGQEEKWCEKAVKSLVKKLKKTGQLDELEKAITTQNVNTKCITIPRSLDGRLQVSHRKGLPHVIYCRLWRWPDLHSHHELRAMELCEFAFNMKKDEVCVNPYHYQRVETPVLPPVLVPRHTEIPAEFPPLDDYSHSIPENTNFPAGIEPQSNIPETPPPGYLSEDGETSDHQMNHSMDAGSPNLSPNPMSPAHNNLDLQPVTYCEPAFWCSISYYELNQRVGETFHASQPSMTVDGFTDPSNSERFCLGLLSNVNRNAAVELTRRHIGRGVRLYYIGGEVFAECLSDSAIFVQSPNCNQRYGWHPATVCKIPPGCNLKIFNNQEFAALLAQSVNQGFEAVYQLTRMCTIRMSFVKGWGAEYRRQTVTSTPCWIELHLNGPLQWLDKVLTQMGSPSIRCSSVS
UniProt Q13485: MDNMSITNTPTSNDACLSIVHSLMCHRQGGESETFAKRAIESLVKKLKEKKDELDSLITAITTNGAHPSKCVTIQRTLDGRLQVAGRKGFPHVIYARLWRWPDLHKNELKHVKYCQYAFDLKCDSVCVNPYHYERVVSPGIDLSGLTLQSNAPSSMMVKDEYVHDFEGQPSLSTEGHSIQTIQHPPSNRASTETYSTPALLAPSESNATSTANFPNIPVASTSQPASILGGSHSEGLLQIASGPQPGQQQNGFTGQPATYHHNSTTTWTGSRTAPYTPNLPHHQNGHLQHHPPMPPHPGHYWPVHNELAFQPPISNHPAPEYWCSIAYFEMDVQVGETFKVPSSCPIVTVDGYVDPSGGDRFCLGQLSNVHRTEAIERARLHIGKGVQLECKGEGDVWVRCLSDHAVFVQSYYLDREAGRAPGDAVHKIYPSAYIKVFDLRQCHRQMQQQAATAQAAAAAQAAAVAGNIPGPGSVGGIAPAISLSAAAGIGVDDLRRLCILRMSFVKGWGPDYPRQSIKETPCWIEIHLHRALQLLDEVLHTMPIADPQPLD

What was measured:
[1] = target: T1, Splicing factor proline- and glutamine-rich (SFPQ) protein (human (endogenous in EA.hy926)) (UniProt P23246); assay: co-IP
T1 sequence: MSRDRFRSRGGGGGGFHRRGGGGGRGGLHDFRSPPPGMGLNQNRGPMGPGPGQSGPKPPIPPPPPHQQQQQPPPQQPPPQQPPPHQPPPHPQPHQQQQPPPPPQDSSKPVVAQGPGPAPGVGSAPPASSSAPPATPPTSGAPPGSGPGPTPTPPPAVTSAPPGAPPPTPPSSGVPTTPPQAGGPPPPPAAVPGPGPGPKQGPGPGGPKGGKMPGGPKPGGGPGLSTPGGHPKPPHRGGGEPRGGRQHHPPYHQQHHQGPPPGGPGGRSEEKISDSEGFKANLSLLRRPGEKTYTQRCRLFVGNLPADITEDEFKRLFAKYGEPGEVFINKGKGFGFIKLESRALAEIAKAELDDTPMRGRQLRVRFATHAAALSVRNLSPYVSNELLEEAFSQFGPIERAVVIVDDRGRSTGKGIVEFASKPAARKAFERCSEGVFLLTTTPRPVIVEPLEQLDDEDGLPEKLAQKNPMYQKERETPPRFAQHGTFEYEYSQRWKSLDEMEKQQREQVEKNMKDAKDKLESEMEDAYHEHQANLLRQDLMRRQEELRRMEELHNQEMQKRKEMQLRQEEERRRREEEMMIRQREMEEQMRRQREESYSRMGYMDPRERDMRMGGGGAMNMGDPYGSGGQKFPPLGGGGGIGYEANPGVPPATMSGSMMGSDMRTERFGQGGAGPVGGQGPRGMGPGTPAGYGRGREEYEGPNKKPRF

[2] = target: T2, HA-SFPQ (UniProt P23246); assay: co-IP
T2 sequence: T1 sequence

Row | binding [1] | binding [2] | Substance
1 | no binding | – | HDAC1 (from UniProt Q13547 1-482)
2 | binds | binds | Smad2/3 (from UniProt Q15796;P84022) (complex)
3 | binds | binds | Smad4 (from UniProt Q13485 1-552)
